PMC2693666
These are yes or no findings as the source states them, for the method shown. Some binding calls cover weakened binding; strength is not graded here.

Sequences of proteins named here, by UniProt entry; tags and fusion partners are left off. Residues count along the entry.
UniProt P07724, residues 25-608: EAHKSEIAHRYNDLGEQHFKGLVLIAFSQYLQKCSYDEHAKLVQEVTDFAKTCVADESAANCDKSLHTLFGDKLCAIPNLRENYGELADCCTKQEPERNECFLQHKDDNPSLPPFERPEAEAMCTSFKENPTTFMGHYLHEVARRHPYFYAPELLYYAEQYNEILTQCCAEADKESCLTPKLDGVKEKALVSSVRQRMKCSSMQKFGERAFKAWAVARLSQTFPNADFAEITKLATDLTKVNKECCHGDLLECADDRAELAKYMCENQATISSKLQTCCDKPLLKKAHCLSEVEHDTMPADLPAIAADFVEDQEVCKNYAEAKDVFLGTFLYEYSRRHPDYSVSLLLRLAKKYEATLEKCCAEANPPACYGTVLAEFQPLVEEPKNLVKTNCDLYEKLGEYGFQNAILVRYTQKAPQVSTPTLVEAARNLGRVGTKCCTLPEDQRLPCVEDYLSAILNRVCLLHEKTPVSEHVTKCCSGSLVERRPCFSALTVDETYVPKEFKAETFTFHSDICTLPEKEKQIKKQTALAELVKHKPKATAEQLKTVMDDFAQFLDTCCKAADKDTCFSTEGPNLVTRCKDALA
UniProt P02787, residues 20-698: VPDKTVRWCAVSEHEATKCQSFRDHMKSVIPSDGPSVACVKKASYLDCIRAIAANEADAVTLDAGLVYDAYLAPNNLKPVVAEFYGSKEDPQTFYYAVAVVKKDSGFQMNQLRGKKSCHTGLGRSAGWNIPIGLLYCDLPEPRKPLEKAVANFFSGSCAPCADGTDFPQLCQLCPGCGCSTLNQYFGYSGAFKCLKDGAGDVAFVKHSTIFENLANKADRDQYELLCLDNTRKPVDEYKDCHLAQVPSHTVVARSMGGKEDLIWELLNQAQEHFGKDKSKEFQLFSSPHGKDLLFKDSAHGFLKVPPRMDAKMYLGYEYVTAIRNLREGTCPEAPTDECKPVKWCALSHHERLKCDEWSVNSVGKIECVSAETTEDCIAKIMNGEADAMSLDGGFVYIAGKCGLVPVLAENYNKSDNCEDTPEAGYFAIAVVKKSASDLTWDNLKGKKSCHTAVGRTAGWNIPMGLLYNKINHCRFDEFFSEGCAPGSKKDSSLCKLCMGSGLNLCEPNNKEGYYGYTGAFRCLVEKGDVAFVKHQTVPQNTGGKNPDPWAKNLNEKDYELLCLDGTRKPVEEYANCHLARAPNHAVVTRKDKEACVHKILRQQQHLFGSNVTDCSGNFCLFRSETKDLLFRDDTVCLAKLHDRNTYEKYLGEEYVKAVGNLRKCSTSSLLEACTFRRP
UniProt Q9QUG3, residues 26-155: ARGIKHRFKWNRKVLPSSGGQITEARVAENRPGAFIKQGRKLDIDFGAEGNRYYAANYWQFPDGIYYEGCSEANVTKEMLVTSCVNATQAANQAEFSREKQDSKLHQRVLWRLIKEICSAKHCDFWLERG

What was measured:
[1] = molecular target: T1, rat alpha-1-inhibitor-3 (α1I3), from rat cerebellum (rat (endogenous in Sprague-Dawley rat cerebellum)) (UniProt P14046); assay: far-Western, overlay or dot blot
T1 sequence: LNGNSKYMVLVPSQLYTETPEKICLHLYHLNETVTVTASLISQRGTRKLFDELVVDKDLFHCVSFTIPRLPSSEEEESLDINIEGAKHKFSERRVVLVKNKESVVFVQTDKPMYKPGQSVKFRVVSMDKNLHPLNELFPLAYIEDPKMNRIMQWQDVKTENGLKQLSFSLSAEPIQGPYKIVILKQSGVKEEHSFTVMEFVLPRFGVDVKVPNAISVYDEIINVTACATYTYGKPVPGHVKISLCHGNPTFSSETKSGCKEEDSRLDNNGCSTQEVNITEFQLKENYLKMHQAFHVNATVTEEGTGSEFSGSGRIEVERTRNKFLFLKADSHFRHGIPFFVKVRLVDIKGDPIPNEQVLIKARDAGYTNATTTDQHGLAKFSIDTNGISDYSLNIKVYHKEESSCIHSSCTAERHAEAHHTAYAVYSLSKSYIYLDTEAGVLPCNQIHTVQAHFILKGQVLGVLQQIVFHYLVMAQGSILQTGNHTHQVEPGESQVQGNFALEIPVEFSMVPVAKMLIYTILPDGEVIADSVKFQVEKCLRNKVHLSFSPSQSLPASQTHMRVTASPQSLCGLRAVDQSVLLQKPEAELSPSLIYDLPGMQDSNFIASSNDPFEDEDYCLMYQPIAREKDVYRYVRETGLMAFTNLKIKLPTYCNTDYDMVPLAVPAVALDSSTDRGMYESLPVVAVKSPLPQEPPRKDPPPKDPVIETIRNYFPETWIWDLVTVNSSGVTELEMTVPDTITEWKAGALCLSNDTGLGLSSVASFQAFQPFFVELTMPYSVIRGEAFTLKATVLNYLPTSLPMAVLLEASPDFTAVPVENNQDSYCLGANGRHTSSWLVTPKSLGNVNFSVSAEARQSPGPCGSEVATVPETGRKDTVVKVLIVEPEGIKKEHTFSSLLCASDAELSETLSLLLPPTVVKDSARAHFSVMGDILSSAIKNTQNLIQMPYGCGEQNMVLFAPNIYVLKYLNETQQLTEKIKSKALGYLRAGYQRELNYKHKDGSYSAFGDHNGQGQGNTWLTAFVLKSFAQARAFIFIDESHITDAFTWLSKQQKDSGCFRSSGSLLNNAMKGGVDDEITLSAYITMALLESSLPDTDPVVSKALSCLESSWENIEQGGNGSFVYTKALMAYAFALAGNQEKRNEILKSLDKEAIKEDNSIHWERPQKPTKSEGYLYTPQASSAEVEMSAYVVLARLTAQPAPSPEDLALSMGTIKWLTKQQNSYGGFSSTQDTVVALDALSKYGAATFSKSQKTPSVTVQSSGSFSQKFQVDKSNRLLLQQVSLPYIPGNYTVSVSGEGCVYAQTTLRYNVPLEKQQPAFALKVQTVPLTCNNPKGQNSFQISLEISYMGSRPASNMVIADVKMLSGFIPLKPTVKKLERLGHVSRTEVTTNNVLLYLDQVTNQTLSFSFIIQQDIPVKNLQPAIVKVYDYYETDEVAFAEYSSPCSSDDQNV

[2] = molecular target: T2, rat alpha-1-inhibitor-3 (α1I3), native form, purified (rat) (UniProt P14046); assay: ELISA; only the target purified
T2 sequence: T1 sequence

[3] = molecular target: T3, rat alpha-1-inhibitor-3 (α1I3), methylamine-activated (FAST) form (rat) (UniProt P14046); assay: ELISA; only the target purified
T3 sequence (chain, methylamine-activated): T1 sequence

[4] = molecular target: T4, alpha-2-macroglobulin (α2M), native form (UniProt P01023); assay: ELISA
T4 sequence: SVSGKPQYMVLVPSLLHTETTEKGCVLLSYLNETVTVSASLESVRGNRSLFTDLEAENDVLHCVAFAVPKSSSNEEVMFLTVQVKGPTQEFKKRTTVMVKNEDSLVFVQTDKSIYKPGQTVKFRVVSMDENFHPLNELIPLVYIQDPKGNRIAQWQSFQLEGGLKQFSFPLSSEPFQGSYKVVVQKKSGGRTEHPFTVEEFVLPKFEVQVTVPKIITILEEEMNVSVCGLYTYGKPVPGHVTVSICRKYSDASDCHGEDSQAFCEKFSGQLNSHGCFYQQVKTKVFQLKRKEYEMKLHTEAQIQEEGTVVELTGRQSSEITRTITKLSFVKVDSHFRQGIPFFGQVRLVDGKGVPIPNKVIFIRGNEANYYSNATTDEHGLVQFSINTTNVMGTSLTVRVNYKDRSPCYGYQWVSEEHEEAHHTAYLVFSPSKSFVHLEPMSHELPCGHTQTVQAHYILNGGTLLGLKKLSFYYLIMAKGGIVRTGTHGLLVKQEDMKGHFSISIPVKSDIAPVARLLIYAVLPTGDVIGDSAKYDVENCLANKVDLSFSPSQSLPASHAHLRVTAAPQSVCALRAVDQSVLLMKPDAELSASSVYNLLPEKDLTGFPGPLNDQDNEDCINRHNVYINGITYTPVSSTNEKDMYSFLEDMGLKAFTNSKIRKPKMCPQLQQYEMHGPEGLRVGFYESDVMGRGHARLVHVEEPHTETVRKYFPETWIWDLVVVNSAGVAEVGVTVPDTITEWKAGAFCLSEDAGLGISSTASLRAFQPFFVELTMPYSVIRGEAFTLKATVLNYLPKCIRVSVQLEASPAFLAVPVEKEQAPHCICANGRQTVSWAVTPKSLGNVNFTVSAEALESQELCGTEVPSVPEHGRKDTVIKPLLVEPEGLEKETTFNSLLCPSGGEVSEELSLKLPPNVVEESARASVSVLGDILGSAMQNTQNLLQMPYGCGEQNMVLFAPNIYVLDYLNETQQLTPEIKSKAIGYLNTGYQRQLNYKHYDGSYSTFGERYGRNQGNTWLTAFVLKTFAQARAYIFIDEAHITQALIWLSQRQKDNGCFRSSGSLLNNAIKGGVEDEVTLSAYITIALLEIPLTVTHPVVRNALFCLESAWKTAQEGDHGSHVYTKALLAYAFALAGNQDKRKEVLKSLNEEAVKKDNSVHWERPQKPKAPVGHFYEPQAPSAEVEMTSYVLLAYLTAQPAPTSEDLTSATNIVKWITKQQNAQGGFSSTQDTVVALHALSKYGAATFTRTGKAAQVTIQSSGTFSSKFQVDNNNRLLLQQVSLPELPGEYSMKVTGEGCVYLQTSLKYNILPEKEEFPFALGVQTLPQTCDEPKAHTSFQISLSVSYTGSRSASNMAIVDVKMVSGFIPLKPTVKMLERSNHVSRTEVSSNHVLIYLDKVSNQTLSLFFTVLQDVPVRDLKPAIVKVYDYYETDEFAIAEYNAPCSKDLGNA

[5] = molecular target: T5, alpha-2-macroglobulin (α2M), activated (fast) form (UniProt P01023); assay: ELISA
T5 sequence (chain, activated form (fast)): T4 sequence

[6] = molecular target: T2, rat alpha-1-inhibitor-3 (α1I3), native form, purified (rat); assay: ELISA; equimolar α1I3 and α2M, native or activated, coated onto plates and incubated with recDpl; also titration of coated α2M from 25 ng to 1.6 µg/well with recDpl 1.0 µg/well; rabbit polyclonal anti-MoDpl, room temperature; both purified
[7] = molecular target: T4, alpha-2-macroglobulin (α2M), native form; assay: as above
[8] = molecular target: T3, rat alpha-1-inhibitor-3 (α1I3), methylamine-activated (FAST) form (rat); assay: as above
[9] = molecular target: T5, alpha-2-macroglobulin (α2M), activated (fast) form; assay: as above
mouse albumin (mouse) = mouse albumin (mouse) (UniProt P07724); assay: ELISA; specificity controls with recDpl, three independent experiments, data not shown; both purified
apo-transferrin = apo-transferrin (UniProt P02787); assay: as above

MoDpl-Fc (from UniProt Q9QUG3 26-155) (Fc fusion)
binding [1]: binds | binding [2]: binds | binding [3]: binds

PrP^C as tested against α2M (construct not told) (from UniProt P04925 23-230)
binding [4]: no binding | binding [5]: no binding

recMoDpl(26–155) (from UniProt Q9QUG3 26-155) (domain or fragment)
binding [6]: binds | binding [7]: binds | binding [8]: binds | binding [9]: binds | binding (mouse albumin (mouse)): no binding | binding (apo-transferrin): no binding
